Data from the GenesisPotency data set.
The whole screen tested about 10,000 compounds, of which about 600 (6%) were called active. About 27% were inconclusive and are not listed. Calls come from the whole dose curve. The list shows a part of the results.

Sequences of proteins named here, by UniProt entry; tags and fusion partners are left off.
UniProt P04637, whole entry, looked up: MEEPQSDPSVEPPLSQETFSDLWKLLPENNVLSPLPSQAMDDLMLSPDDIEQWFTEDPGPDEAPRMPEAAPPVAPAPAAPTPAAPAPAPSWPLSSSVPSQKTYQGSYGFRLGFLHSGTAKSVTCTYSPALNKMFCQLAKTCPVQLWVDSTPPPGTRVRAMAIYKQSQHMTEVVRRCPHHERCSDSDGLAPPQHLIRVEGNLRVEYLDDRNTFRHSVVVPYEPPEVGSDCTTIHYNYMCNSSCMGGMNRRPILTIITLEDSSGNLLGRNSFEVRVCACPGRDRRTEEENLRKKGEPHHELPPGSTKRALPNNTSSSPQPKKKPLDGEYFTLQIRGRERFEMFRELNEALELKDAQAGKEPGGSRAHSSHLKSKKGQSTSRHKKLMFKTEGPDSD

What follows are compounds tested against Cellular tumor antigen p53, Homo sapiens (UniProt P04637) (assay: qHTS assay for small molecule agonists of the p53 signaling pathway (AID 651631)).

Compound | outcome
[I-].[Na+] | inactive
[I-].[K+] | inactive
